PubChem BioAssay AID504793, Drosophila RNAi Screening Center – 2011
Purpose: 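Genes required for cells to halt at G2/M after double-strand DNA breaks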 (primary screen). Cells: Drosophila S2R+ cells. Knock-down reagent: long dsRNA against Drosophila genes, about 0.25 µg dsRNA per well. Time to read-out: 4 days of dsRNA, then 4 hours of drug before read-out. Conditions: doxorubicin 0.5 µM for 4 hours to cause double-strand breaks, in cells also given a low, harmless dose of dsRNA against nbs to sensitise the assay. Measured: 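Per-well count of mitotic cells stained for phospho-histone H3 after doxorubicin exposure, used as mitotic index; counts are raw and not normalised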. Reading the numbers: mitotic cells: higher = more cells in mitosis, weaker G2 arrest. Call rule: 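Genes are called active only when high mitotic counts were reproduced with independent dsRNAs and mitosis was checked for delay without damage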. Calls: active = confirmed in follow-up tests; inactive = not confirmed.
The screen tested about 23,000 reagents; shown is a random part of those with a known target gene and a result. Over the whole deposit, 62 (0.27%) got an active call. 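Calls come from follow-up tests whose scores are not deposited, so confirmed genes may have low counts here; counts are not normalised per plate.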 Raw values vary from plate to plate and are shown uncorrected.

tub (tube) [SID104192181] → mitotic cells, replicate 1 = 11; activity call = inactive
tub (tube) [SID104202159] → mitotic cells, replicate 1 = 9; activity call = inactive
Bet5 (Blocked early in transport 5) [SID104194392] → mitotic cells, replicate 1 = 11; activity call = inactive
CG14154 [SID104189948] → mitotic cells, replicate 1 = 7; activity call = inactive
CG33464 (retired record) [SID104202293] → mitotic cells, replicate 1 = 8; activity call = inactive
CG17490 [SID104183589] → mitotic cells, replicate 1 = 11; activity call = inactive
CG17490 [SID104205324] → mitotic cells, replicate 1 = 4; activity call = inactive
CG11327 [SID104181938] → mitotic cells, replicate 1 = 5; activity call = inactive
Cp190 (Centrosomal protein 190kD) [SID104196399] → mitotic cells, replicate 1 = 3; activity call = inactive

The list goes on (2 carried over from the part before).
CG11327 [SID104181938] → mitotic cells, replicate 1 = 5; activity call = inactive
Cp190 (Centrosomal protein 190kD) [SID104196399] → mitotic cells, replicate 1 = 3; activity call = inactive
EMC2B (ER membrane protein complex subunit 2B) [SID104195298] → mitotic cells, replicate 1 = 7; activity call = inactive
RpS27 (Ribosomal protein S27) [SID104194036] → mitotic cells, replicate 1 = 20; activity call = inactive
RpS27 (Ribosomal protein S27) [SID104208490] → mitotic cells, replicate 1 = 10; activity call = inactive
RpL7 (Ribosomal protein L7) [SID104183209] → mitotic cells, replicate 1 = 5; activity call = inactive
RpL7 (Ribosomal protein L7) [SID104207884] → mitotic cells, replicate 1 = 7; activity call = inactive
